Results on 3 compounds are retold here after patent US6344223B1, “Food fortified with iron” (Nestec S.A, priority 2000, dated 2002).

Common to all, as to assay type: physicochemical
Data set [1] is described as follows: Discoloration of iron fortified MILO powder reconstituted with boiling water (total color difference, Hunter). Conditions: for MILO powder (ΔE): 15.0 ppm final iron, reconstituted with boiling water, 15 minutes at room temperature; for color change in fortified MILO powder: 15 ppm iron.
Data set [2] in a line: Discoloration of iron fortified NESQUIK powder reconstituted with boiling milk (total color difference, Hunter). Conditions: for NESQUIK powder (ΔE): 15.0 ppm final iron, reconstituted with boiling milk, 15 minutes at room temperature; for color change in fortified NESQUIK powder: 15 ppm iron.
Data set [3] is described as follows: Lipid oxidation induction time of fish oil by Metrohm Rancimat. Conditions: 100 C.

With `O=P([O-])([O-])[O-].[Fe+2].[NH4+]` [FeHN4PO4, ferrous ammonium phosphate], in data set [1], the “MILO powder (ΔE)” value came out at 1.1 and the “color change in fortified MILO powder” value is listed as “minor color changes”. Also, in data set [2], the “NESQUIK powder (ΔE)” value is given as 1.5 and the “color change in fortified NESQUIK powder” value is given as “minor color changes”.
ferrous sulfate [FeSO4]: in data set [1], the “MILO powder (ΔE)” value is 10.5 and the “color change in fortified MILO powder” value is reported as “significant color change”. Further, in data set [2], the “NESQUIK powder (ΔE)” value came out at 10.3 and the “color change in fortified NESQUIK powder” value was “significant color change”. For the same compound, in data set [3], the “induction time less than control” value was 50-60%. The “induction time” value in data set [3] (50 ppm) was 2.5 h.
ferric sulfate: the “induction time less than control” value in data set [3] is “about 60%”.
